Assay results reported in PubChem BioAssay (NCATS).
The other results are listed elsewhere or left out. Shown are side measurements of this screen, not its main read-out; they come without a call. Compounds called inactive in the main read-out are mostly missing here. Potencies come from curve fits of mixed quality, noted in brackets.

Assay: qHTS Assay for Inhibitors of PDE-IV (AID 607)
Details: HEK293 ACTOne CNG channel cells, membrane potential fluorescence; measured here: parental cell counter-screen
In short: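 The readout is membrane depolarisation from a cAMP-sensing CNG channel, detected with a potential dye at ex 535/em 590. Cells were HEK293-derived (endogenous PDE-IV) at 1000 cells/well, titrated up to 22.9 uM final.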

Row | Compound | AC50
1 | C=C(CC1([C@@H](NP(=O)(c2ccccc2)c2ccccc2)[C@H]2C[C@@H]2CCCC)CC1)c1ccccc1 | 0.0631 µM [rising, partial curve, poor fit]
2 | CCCC/C=C/C(NC(=O)c1ccc(C(=O)OC)cc1)c1ccccc1 (stereo not given) | 10 µM [rising, single point]
3 | CCCC/C=C/C(NC(=O)c1ccccc1)c1ccccc1 (stereo not given) | 15.8 µM [rising, single point]
4 | COC(=O)[C@@]1(Cc2ccc(OC)cc2)[C@H]2c3cc(C(=O)N(C)C)n(Cc4ccc(C)o4)c3C[C@H]2CN1C(=O)c1ccccc1 | 10 µM [rising, partial curve]
5 | Cc1ccc(/C(=C/CN2CCCC2)c2ccccn2)cc1 | 25.1 µM [rising, partial curve, poor fit]
6 | c1ccc(-c2c3ccccc3nc3[nH]c4ccccc4c23)cc1 | 12.6 µM [rising, partial curve]
7 | Cc1noc(C)c1C(=O)N1CCC2(CCCN(Cc3nccs3)C2)CC1 | 3.98 µM [rising, single point]
8 | CNC(=O)[C@H](C)[C@H]1C[C@]1(C)[C@H](NC(=O)OCc1ccccc1)c1ccccc1 | 12.6 µM [rising, single point]
9 | COC(=O)N1CCC[C@@]2(CCN(C(c3ccccc3)c3ccccc3)C2)C1 | 0.0126 µM [rising, full curve, poor fit]
10 | CC(C)Cc1ccc([C@H](C)C(=O)O)cc1 | 2.51 µM [rising, partial curve]
11 | CCCC/C=C/C(NC(=O)OCc1ccccc1Cl)c1ccccc1 (stereo not given) | 12.6 µM [rising, single point]
12 | CCCCc1c2ccccc2nc2[nH]c3ccccc3c12 | 7.94 µM [rising, single point]
13 | COCC(=O)N1CCC2(CC1)CCN(c1ccncc1)CC2 | 0.00631 µM [falling, full curve, poor fit]
14 | Cc1ccccc1-c1cncnc1NCc1cccs1 | 10 µM [rising, partial curve]
15 | CNc1nc(-c2ccccc2CN(C)C)nc2ccccc12 | 12.6 µM [rising, single point]
16 | CC[C@@]12CCCN3CCc4c(n(c5ccccc45)C(=O)C1)[C@H]32 | 15.8 µM [rising, partial curve]
17 | O=C(/C=C\C=C/c1ccc2c(c1)OCO2)N1CCCCC1 | 7.94 µM [rising, partial curve]
18 | O=C(c1ccco1)N1CCC[C@@]2(CCN(c3ccccn3)C2)C1 | 0.631 µM [rising, single point]
19 | CC[C@@H]1CN2CCc3cc(OC)c(OC)cc3[C@H]2C[C@@H]1C[C@H]1NCCc2cc(OC)c(OC)cc21 | 12.6 µM [rising, partial curve]
20 | CC(=O)N1CCC2(CCN(Cc3ccncc3)CC2)CC1 | 3.98 µM [rising, single point]
21 | O=C1[C@@H]2[C@@H](C(=O)N1c1ccc(OCc3ccccc3)cc1)[C@@H]1c3ccccc3[C@@H]2[n+]2ccccc21 | 2.51 µM [rising, single point]
22 | CC(C)c1cc(C(F)(F)F)nc(NNc2nc(C(C)C)cc(C(F)(F)F)n2)n1 | 1.26 µM [rising, partial curve]
23 | COc1ccc(C(=O)N2CCC3(CCN(CC(C)C)CC3)CC2)cc1 | 3.98 µM [rising, single point]
24 | N#Cc1cccc(NC(=O)N2CCCC3(CCN(S(=O)(=O)c4ccccc4)CC3)C2)c1 | 0.631 µM [rising, single point]
25 | CCC/C=C(\CCC)C(NC(=O)Cc1ccccc1)c1ccc(C(=O)OC)cc1 (stereo not given) | 6.31 µM [rising, partial curve]
26 | COc1ccc(-c2nc3cnc(OC)nc3n(C[C@H]3CCCO3)c2=O)cc1 | 15.8 µM [rising, single point]
27 | CCCC/C=C/C(NC(=O)c1ccc(C(F)(F)F)cc1)c1ccccc1 (stereo not given) | 10 µM [rising, single point]
28 | COCCNc1ncnc2ccc(-c3ccccc3C(F)(F)F)cc12 | 12.6 µM [rising, single point]
29 | NC(N)=NN=Cc1c(Cl)cccc1Cl | 10 µM [rising, partial curve, poor fit]
30 | CCCC[C@@H]1C[C@H]1C(NC(=O)c1ccccc1)c1ccccc1C(F)(F)F (stereo not given in full) | 3.16 µM [rising, full curve]

Rewritten as tab-separated lines: entries from further up
Row	Compound	AC50
15	CNc1nc(-c2ccccc2CN(C)C)nc2ccccc12	12.6 µM [rising, single point]
16	CC[C@@]12CCCN3CCc4c(n(c5ccccc45)C(=O)C1)[C@H]32	15.8 µM [rising, partial curve]
